Out of some 330,000 compounds screened, about 1,000 (0.3%) were called active. Inconclusive means that the source gave no clear call. Such entries were picked first, then a sample of the others. The call rests on the fitted dose curve; in most records, active means well fitted inhibition curve with a large enough effect; inconclusive means small, poorly fitted or top-dose-only effect; inactive means no such curve, though single readings can be large or run the other way; tested in mouse RAW 264.7 cells. Potencies beside an inconclusive call are fits to weak or partial responses and may not hold up.
Assay: qHTS for Inhibitors of Cell Surface uPA Generation; further: nearly all actives have a fitted effect of over 55% in size
Settings: cell surface uPA generation assay; series mostly up to 38.3 µM
Method in brief: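 Validation set in qHTS format. RAW 264.7 cells were pre-plated overnight and then exposed to compounds (up to 38.3 uM final) for 24 h at 37 C in 5% CO2, followed by a luminescent ATP-Lite measurement.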
Potency means the concentration at half of the fitted maximal effect.

| SMILES | Potency |
| --- | --- |
| COc1ccc(Cl)cc1Nc1nc(-c2sc(NC(=O)c3ccco3)nc2C)cs1 | inactive |
| O=C(CSCc1cc(=O)n2ccsc2n1)Nc1ccc(F)cc1 | inconclusive: 0.01 µM [inhibitor, full curve, poor fit] |
| CCCNc1sc(S(=O)(=O)CCC)nc1S(=O)(=O)c1ccc(C)cc1 | inconclusive: 2.51 µM [inhibitor, full curve, poor fit] |
| COc1cc(-c2nc(C(=O)NC3CCCCC3)cc3c2[nH]c2ccccc23)cc(OC)c1OC | inconclusive: 12.6 µM [inhibitor, single point] |
| Cc1nc2ccccc2c2oc(C(=O)NCC3COc4ccccc4O3)cc12 (configuration not stated) | inconclusive: 22.4 µM [inhibitor, partial curve, poor fit] |
| CCCN=Cc1c(CCC)[nH]n(-c2nc3ccccc3s2)c1=O | inactive |
| Cc1[nH]c(=O)[nH]c(=O)c1S(=O)(=O)Nc1cccc([N+](=O)[O-])c1C | inactive |
| COc1ccc(CN2C(=O)C(CC(C)C)Nc3ncnc(N4CCN(c5ccccc5)CC4)c32)cc1 (configuration not stated) | inconclusive: 7.08 µM [inhibitor, partial curve, poor fit] |
| COc1ccc(CNC(=O)C(C)Sc2nc3ccccc3c(=O)n2CC2CCCO2)cc1 (configuration not stated) | inactive |
| CCN(CC)c1ccc(/C=N/N=C(c2ccccc2)c2ccccc2)c(O)c1 | inactive |
| CCCCCCNC(=O)Cc1c(O)c2ccccc2[nH]c1=O | inactive |
| CC(C)S(=O)(=O)c1csc(C(=O)Nc2ccc(F)cc2)c1N | inconclusive: 4.47 µM [inhibitor, partial curve, poor fit] |
| Oc1ccccc1C=Nc1cccc2ccccc12 | inconclusive: 10 µM [inhibitor, partial curve] |
| O=C(O)CCC(=O)N1CCc2cc(S(=O)(=O)N3CCN(c4ccc(F)cc4)CC3)ccc21 | inconclusive: 12.6 µM [inhibitor, single point] |
| N#C/C(=C/c1cn(-c2ccccc2)nc1-c1cccc(OCc2ccccc2)c1)C(=O)NCCCn1ccnc1 | inconclusive: 28.2 µM [inhibitor, single point] |
| O=C(NCC(c1ccco1)N1CCCCC1)c1ccc2c(c1)S(=O)(=O)c1ccccc1C2=O (configuration not stated) | inconclusive: 31.6 µM [inhibitor, single point] |
| CC(=O)NCCn1c(SCC(=O)NC2CCCCC2)nc2ccccc2c1=O | inactive |
| O=C1c2cccc3c([N+](=O)[O-])ccc(c23)C(=O)N1O | inconclusive: 2.82 µM [inhibitor, partial curve, poor fit] |
| CCC1=NC(c2ccccc2)N(O)C1(C)C (configuration not stated) | inactive |
| COc1ccc(C2=Nn3c(nnc3-c3ccccc3Cl)SC2)cc1OCC1CC1 | inconclusive: 8.91 µM [inhibitor, partial curve, poor fit] |
| COc1ccccc1C(=O)NNC(=O)c1ccccc1 | inconclusive: 31.6 µM [inhibitor, partial curve, poor fit] |
| Cc1ccc(NC(=O)COc2ccccc2C#N)cc1S(=O)(=O)N1CCCCCC1 | inconclusive: 12.6 µM [inhibitor, single point] |
| O=C(NCCc1ccc(O)cc1)c1ccc(Cl)cc1 | inactive |

In a second layout: results already given
COc1ccc(Cl)cc1Nc1nc(-c2sc(NC(=O)c3ccco3)nc2C)cs1
  Potency: inactive
COc1ccc(CN2C(=O)C(CC(C)C)Nc3ncnc(N4CCN(c5ccccc5)CC4)c32)cc1 (configuration not stated)
  Potency: inconclusive: 7.08 µM [inhibitor, partial curve, poor fit]
COc1ccc(C2=Nn3c(nnc3-c3ccccc3Cl)SC2)cc1OCC1CC1
  Potency: inconclusive: 8.91 µM [inhibitor, partial curve, poor fit]

(list continues)

| SMILES | Potency |
| --- | --- |
| COc1cccc(-c2cc(=O)c3cc(NC(C)=O)ccc3[nH]2)c1 | inconclusive: 12.6 µM [inhibitor, single point] |
| COC(=O)c1cc(S(=O)(=O)N2CCC(C)CC2)cn1C | inconclusive: 28.2 µM [inhibitor, single point] |
| O=C(c1cccc(S(=O)(=O)NCc2ccccc2)c1)N1CCN(c2ccccc2)CC1 | inconclusive: 1 µM [inhibitor, full curve, poor fit] |
| Cc1ccc(NS(=O)(=O)c2c(C(=O)N3CCCC3)c(C)n(C)c2C)cc1 | inactive |
| COc1ccc(C(=O)CSc2nc(C)cc(=O)[nH]2)cc1 | inactive |
| COc1ccc(CCC(C)N2CCC(Oc3ccc(C(=O)N4CCCC4)cc3)CC2)cc1 (configuration not stated) | inconclusive: 2.51 µM [inhibitor, full curve, poor fit] |
| Cc1ccn2c(C=O)c(-c3ccc(F)cc3)c(C=O)c2c1 | inconclusive: 1.41 µM [inhibitor, full curve, poor fit] |
| O=C(C[C@@H]1C/C=C/CC[C@H](Cc2ccc(F)cc2)C(=O)OC[C@@H](Cc2ccccc2)NC1=O)N[C@H](CO)Cc1ccccc1 | inconclusive: 22.4 µM [inhibitor, single point] |
| CCC[C@@H](CN[C@@H](CNC)C(C)C)NCCCCc1ccccc1 | inconclusive: 3.55 µM [inhibitor, partial curve] |
| CC1=C(C(=O)OC2CCCCC2)C(c2ccc(O)cc2)NC(=O)N1 (configuration not stated) | inconclusive: 0.316 µM [inhibitor, full curve, poor fit] |
| CC(=O)Nc1c(-c2ccc3ccccc3c2)nc2ccccn12 | inconclusive: 5.62 µM [inhibitor, partial curve, poor fit] |
| CC1CN(c2nc3ccccc3nc2SCC(=O)Nc2ccc(F)cc2)CC(C)O1 (configuration not stated) | inconclusive: 8.91 µM [inhibitor, single point] |
| CN(C)C1=NCCN1CCC1CCCC1 | inactive |
| Cc1ccc(C)c(S(=O)(=O)N2CCN(C(=O)/C=C/c3ccco3)CC2)c1 | inconclusive: 12.6 µM [inhibitor, single point] |
| COc1ccc(N2CCN(C(=O)[C@H](C)NC(=O)c3ccccc3Cl)CC2)cc1 | inactive |
| Cc1cc(C)c(S(=O)(=O)NCCn2c(C)cc3ccccc32)c(C)c1 | inactive |
| CCOC(=O)CSc1ncnc2c1sc1nc(N3CCOCC3)c3c(c12)CCCC3 | inactive |
| CC(=O)Nc1ccc(S(=O)(=O)Nc2nccc(C)n2)cc1 | inconclusive: 1 µM [inhibitor, partial curve, poor fit] |
| CC(C)CNC(C(=O)Nc1ccc([N+](=O)[O-])cc1Br)c1ccccc1 (configuration not stated) | inconclusive: 5.62 µM [inhibitor, partial curve] |
| COC(=O)c1ccc(NC(=O)C(=O)c2cccn2C)cc1 | inconclusive: 7.94 µM [inhibitor, single point] |
| COc1ccc(CN2CCN(C(=O)CC(C)C)CC2)c(OC)c1OC | inactive |
| COc1ccc(OC)c(-c2nnc3n2N=C(c2ccc(OC)c(OC)c2)CS3)c1 | inconclusive: 0.0316 µM [inhibitor, full curve, poor fit] |
| O=C(Nc1cccc([N+](=O)[O-])c1)Nc1cccs1 | inconclusive: 12.6 µM [inhibitor, single point] |

Taken from above:
Value for Cc1ccn2c(C=O)c(-c3ccc(F)cc3)c(C=O)c2c1 under Potency: inconclusive: 1.41 µM [inhibitor, full curve, poor fit]
Value for COc1cccc(-c2cc(=O)c3cc(NC(C)=O)ccc3[nH]2)c1 under Potency: inconclusive: 12.6 µM [inhibitor, single point]

The list continues:

| SMILES | Potency |
| --- | --- |
| Cc1ccc(C)c(S(=O)(=O)N2CCN(C(=O)C(C)Sc3ccccc3)CC2)c1 (configuration not stated) | inconclusive: 10 µM [inhibitor, single point] |
| O=C(CSc1nnc(Nc2ccccc2F)s1)NCc1ccco1 | inactive |
| CCOC(=O)C1CCN(C(=O)c2cc3cc(Br)ccc3oc2=O)CC1 | inconclusive: 0.0126 µM [inhibitor, full curve, poor fit] |
| Cc1ccc(Nc2nc(CSc3nnc(-c4ccccc4C)n3C)cs2)cc1 | inactive |
| CC(C)CC(=O)Nc1nnn(C)n1 | inactive |
| O=C(Nc1ccncc1)C1CCCN(S(=O)(=O)c2cccc3cccnc23)C1 (configuration not stated) | inconclusive: 2 µM [inhibitor, full curve, poor fit] |
| CN(C(=O)/C=C/c1ccc([N+](=O)[O-])s1)c1ccccc1 | inconclusive: 2.82 µM [inhibitor, single point] |
| CC(=O)NN1C(=O)c2ccccc2NC1c1ccc([N+](=O)[O-])o1 (configuration not stated) | inconclusive: 12.6 µM [inhibitor, single point] |
| Cc1ccc(-c2cc(C(=O)O)c3ccccc3n2)s1 | inconclusive: 4.47 µM [inhibitor, partial curve] |
| Cc1ccc(C(=O)Nc2cccc(C(F)(F)F)c2)cc1NC(=O)c1nccn1C | inconclusive: 1.12 µM [inhibitor, single point] |
| COc1ccc2c(c1)CC/C(=C\Nc1ccc3c(c1)OCO3)C2=O | inconclusive: 10 µM [inhibitor, partial curve, poor fit] |
| CCN(CC)CCCNC(=O)c1ccc(N2CCCCC2)c(NS(=O)(=O)c2ccc(C)cc2)c1 | inconclusive: 7.94 µM [inhibitor, partial curve] |
| COC(=O)C1=C(C(=O)OC)[C@@H]2N(C)c3ccccc3[C@@]23C[C@@H](C(=O)OC)N(C(=O)c2ccc(Br)cc2)C3=N1 | inconclusive: 14.1 µM [inhibitor, single point] |
| Cn1cc(S(=O)(=O)N2CCCC2)cc1C(=O)N1CCN(c2cccc(Cl)c2)CC1 | inconclusive: 12.6 µM [inhibitor, single point] |
| COc1ccc(CCNC(=S)Nc2cccc(C)c2)cc1 | inactive |
| Cc1ccc(Nc2nc(N)nc(COC(=O)C3=COCCO3)n2)cc1 | inconclusive: 6.31 µM [inhibitor, single point] |
| O=C(CN1C(=O)S/C(=C\C=C\c2ccccc2)C1=O)NC1CCS(=O)(=O)C1 (configuration not stated) | inconclusive: 10 µM [inhibitor, partial curve, poor fit] |
| O=C(Nc1cccc(-c2cccc(Cl)c2)c1)C1CCN(Cc2ccon2)CC1 | inconclusive: 28.2 µM [inhibitor, single point] |
| O=C(Nc1nccs1)c1ccc(CSc2ccccc2)o1 | inconclusive: 5.01 µM [inhibitor, partial curve] |
| CCOCCCn1c(SCC(=O)Nc2ccc3[nH]c(=O)[nH]c3c2)nc2ccccc2c1=O | inactive |
| Cc1c(C(=O)NCC2CCCO2)sc2nc(-c3ccccc3)cn12 (configuration not stated) | inconclusive: 8.91 µM [inhibitor, partial curve, poor fit] |

Source: PubChem BioAssay AID540303 (National Center for Advancing Translational Sciences (NCATS), 2011)
